The text below walks through data of US6281248A, “Composition for treating asthma” (priority 2000, dated 2001).

Data set [1] relates to human lymphocytes. Conditions: in vitro, with or without metabolic activation.
Data set [2] has as its system serotonergic 5HT1A receptor. The settings on record: in vitro.
The conditions of data set [3]: human, in vivo.
Data set [4] concerns serotonergic 5HT1B receptor. The settings on record: in vitro.
The subject of data set [5] is cholinergic receptors. Conditions: in vitro.
Data set [6] relates to mouse boric marrow. Conditions: in vivo.
Data set [7] has as its system dopaminergic receptors. The settings on record: in vitro.
Data set [8] relates to benzodiazepine receptors. The settings on record: in vitro.
The test system of data set [9] is GABA receptors. Conditions: in vitro.
For data set [10], the system named is adrenergic beta receptor. The settings on record: in vitro.
The subject of data set [11] is adrenergic alpha2 receptor. Conditions: in vitro.
For data set [12], the system named is plasma protein binding of propranolol. Briefly: Plasma protein binding of propranolol. It is filed as in vitro ADME. Conditions: sertraline up to 300 ng/mL, desmethylsertraline up to 200 ng/mL.
Data set [13] concerns adrenergic alpha1 receptor. Conditions: in vitro.
The subject of data set [14] is histaminergic receptors. Conditions: in vitro.
For data set [15] the following is noted: single dose, 50 to 200 mg.
Data set [16] can be described thus: clinical. Conditions: human, plasma, po.
Data set [17] deals with plasma protein binding of warfarin. Briefly: Plasma protein binding of warfarin. It is filed as in vitro ADME. The settings on record: sertraline up to 300 ng/mL, desmethylsertraline up to 200 ng/mL.
The nature of data set [18]: clinical. The settings on record: human, plasma, time to reach peak plasma concentration, single dose.

Each structure is given as a SMILES string.

For orientation: Tmax means the time at which the peak concentration occurs. Regarding `CN[C@H]1CC[C@@H](c2ccc(Cl)c(Cl)c2)c2ccccc21.Cl` [sertraline, (1S-cis)-4-(3,4-dichlorophenyl)-1,2,3,4-tetrahydro-N-methyl-1-naphthalenamine hydrochloride], in data set [1], the “genotoxic effects, cytogenetic aberrations in human lymphocytes” value is “no genotoxic effects”. Further, the “affinity for serotonergic 5HT1A receptors” value in data set [2] is “no significant affinity”. For the same compound, in data set [3], the “share of the plasma radioactivity” value is “less than 5%”. The “administered radioactivity accounted for in feces” value in data set [3] (216 h) is reported as 40-45%. In data set [3] (216 h), the “administered radioactivity recovered in urine” value was 40-45%. Moreover, the “affinity for serotonergic 5HT1B receptors” value in data set [4] is “no significant affinity”. In addition, the “affinity for cholinergic receptors” value in data set [5] is “no significant affinity”. In data set [6], the “genotoxic effects, cytogenetic aberrations in mouse bone marrow” value is “no genotoxic effects”. Also, the “affinity for dopaminergic receptors” value in data set [7] is recorded as “no significant affinity”. For the same compound, the “affinity for benzodiazepine receptors” value in data set [8] is “no significant affinity”. In addition, in data set [9], the “affinity for GABA receptors” value is “no significant affinity”. Moreover, the “affinity for adrenergic beta receptors” value in data set [10] was “no significant affinity”. The “affinity for adrenergic alpha2 receptors” value in data set [11] is “no significant affinity”. In data set [12], the “alteration of plasma protein binding of propranolol” value is reported as “did not alter”. Besides, the “affinity for adrenergic alpha1 receptors” value in data set [13] is recorded as “no significant affinity”. In [14], the “affinity for histaminergic receptors” value is given as “no significant affinity”. The “area under plasma concentration time curve (AUC) dose proportionality” value in [15] is given as “proportional to dose”. In addition, the time of peak concentration (Tmax) is 4.5 to 8.4 h in data set [16], 5.5 h in [18] (with food) and 8 h in data set [18] (without food). For the same compound, in data set [17], the “alteration of plasma protein binding of warfarin” value is given as “did not alter”.
